# Data published in PubChem BioAssay AID1259415 (National Center for Advancing Translational Sciences (NCATS), 2018).
# The whole screen tested about 410,000 compounds, of which about 18,000 (4.4%) were called active. This list was built around the results that the source calls inconclusive (neither active nor inactive); the mix of calls is not that of the screen. No stated cut-off is given here; in the data, active means activity change below about -60%; inconclusive means no clear call, values can overlap the other calls; inactive means above about -39%.
# Test: qHTS Assay for inhibitors of the human cytomegalovirus (HCMV)
# Details: HFF cells, HCMV-luciferase reporter, 72 h; at 57.5 µM; active compounds read low
# Procedure, shortened: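 Cell-based, HFFs, 1000 cells/well, 16 h 37C; cpds in DMSO + HCMV-luc, MOI 1 PFU/cell; 72 h 37C; OneGlo luminescence after 5 min RT; norm. to buffer vs Salinomycin 10uM.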
# On the % scale 0 is the no-effect control and ±100 the full control effect.
row,SMILES,"activity change, negative = inhibition"
1,C/C(=N/NC(=O)c1ccco1)c1ccc(Br)s1,inconclusive: -40.3%
2,CC(=O)NC(c1ccccc1)c1cc([N+](=O)[O-])c2cccnc2c1O (configuration not stated),inactive: 24.8%
3,COc1ccc(CNC(=O)CN(C(=O)c2csnn2)c2ccc3c(c2)OCCO3)cc1,inactive: 0.675%
4,Cc1ccc(C)c(NC(=S)Nc2cccc3cnccc23)c1,inactive: -34.1%
5,COc1ccccc1NC(=O)Nc1nc2ccc(S(N)(=O)=O)cc2s1,inactive: 79.1%
6,CC1CCN(c2cc3c(cc2F)c(=O)c(S(=O)(=O)c2cccc(Cl)c2)cn3Cc2ccccc2)CC1,inactive: 51%
7,CCN(CC)c1ccc(/C=N/OCC(=O)N2CCCc3ccccc32)cc1,inconclusive: -48.5%
8,Cc1cccc(-n2c(SCC(N)=O)nc3c(c2=O)C2(CCCC2)Cc2ccccc2-3)c1,inconclusive: -47.9%
9,CS(=O)(=O)N(CC(=O)NCc1ccco1)c1ccc2c(c1)OCO2,inactive: -9.98%
10,COc1cccc(CNC(=O)C(=O)NCCc2ccc(OC)c(OC)c2)c1,inconclusive: -50.6%
11,O=C(NC12CC3CC(CC(C3)C1)C2)c1ccc(-c2cccc(Cl)c2)o1,active: -62.9%
12,Cc1cccc(-c2cccc(NC(=O)C3CCCN(C(=O)c4cccnc4)C3)c2)c1 (configuration not stated),inconclusive: -46.3%
13,C/C(N)=C(/C#N)C(=O)CSc1nc2cc(Cl)ccc2c(=O)n1-c1ccc(C)cc1,inconclusive: -56.1%
14,O=C(Nc1cccc(C(F)(F)F)c1)N1CCC(CN2CCCCCC2)CC1,inactive: -11.4%
15,COc1cc(O)cc2c1C(=O)O[C@@H](C)CCCC(=O)CCCCC2,inconclusive: -45.7%
16,COCCNc1nc(NC(C)C)nc2ccsc12,inactive: 0.767%
17,c1ccc(CC2CCN(Cc3nc(-c4ccccc4)no3)CC2)cc1,inactive: -16.1%
18,CCN(C(=O)CN1CCOCC1)C1(C)C(=O)c2ccccc2C1=O,inconclusive: -47.8%
19,COc1ccc(S(=O)(=O)c2snnc2C)cc1,inconclusive: -40%
20,CN1CCCN(C(c2ccccc2)c2ccc(Cl)cc2)CC1 (configuration not stated),inconclusive: -55.1%
21,Cc1ccc(C(=O)C(C(=O)/C=C/c2ccccc2)=C2SCCCS2)cc1,active: -97.1%
22,O=C1CN(C(=O)/C=C/c2ccc(Cl)cc2)c2ccccc2N1,inconclusive: -46.8%

row,SMILES,"activity change, negative = inhibition"
1,COc1ccc(C2=NN(C(=O)CSc3cn(C)c4ccccc34)C(c3ccc(OC)cc3)C2)cc1 (configuration not stated),inconclusive: -52.2%
2,CCSc1nnc(N2C(=O)c3ccc(C(=O)c4ccc(C(=O)O)cc4)cc3C2=O)s1,inconclusive: -40%
3,O=C(COc1ccccc1/C=C1\SC(=O)NC1=O)Nc1ccc(F)cc1,inconclusive: -48.2%
4,CCOCCCNC(=O)C(NC(=O)CNC(=O)c1ccccc1)c1ccc(OC)cc1 (configuration not stated),inconclusive: -50.5%
5,COc1ccc(CCNC(=O)CCCn2c(=O)c3ccccc3n(CC(=O)Nc3cccc(C)c3)c2=O)cc1OC,inactive: -7.84%
6,CCCOc1ccc(C(=O)Nc2ccc(S(=O)(=O)NC3=NCCCCC3)cc2)cc1,active: -61.7%
7,CC(=O)c1cccc(NC(=O)c2ccc(S(=O)(=O)N3CCCCC3)cc2)c1,inconclusive: -54.7%
8,CC(=O)Nc1ccc(S(=O)(=O)NCc2ccc3c(c2)CCN3C(C)=O)cc1,inconclusive: -56.6%
9,Cc1ccccc1N1CCN(C2CCCN(C(=O)c3csc(C(C)C)n3)C2)CC1 (configuration not stated),inconclusive: -40.6%
10,CCOc1ccccc1N1CCN(S(=O)(=O)c2cc(C)ccc2OC)CC1,inconclusive: -51.8%
11,COc1ccc(-c2csc3ncnc(N4CCN(S(=O)(=O)c5cccc(C(F)(F)F)c5)CC4)c23)cc1,inconclusive: -54.8%
12,CCNc1nc2c(c(=O)n(C)c(=O)n2C)n1Cc1ccc(Cl)cc1,active: -65.6%
13,Cc1ccc(NC(=O)c2ccc(S(=O)(=O)N3CC(C)CC(C)C3)cc2)cc1S(=O)(=O)N1CCOCC1 (configuration not stated),inconclusive: -49.7%
14,O=C(Nc1cccc(C(=O)N2CCOCC2)c1)c1ccccc1Cl,inconclusive: -48.4%
15,COc1ccc(C(=O)/C(C#N)=N/Nc2ccc([N+](=O)[O-])cc2)cc1,active: -114%
16,COc1ccc2nc(/N=C(\N)NC(=O)N3c4ccccc4Sc4ccccc43)nc(C)c2c1,inconclusive: -46%
17,CC(C)c1ccc(NC2CCCN(C(=O)CSc3nncn3C)C2)cc1 (configuration not stated),inconclusive: -47.9%
18,CC(/C=N/n1c(-c2cc(C)[nH]n2)n[nH]c1=S)=C\c1ccccc1,inconclusive: -40.8%
19,CNc1cncc(-c2ccc(NS(C)(=O)=O)cc2)n1,inconclusive: -40.9%
20,CCOC(=O)c1c(NC(=O)C2C3CCC(O3)C2C(=O)O)sc(C)c1-c1ccc(F)cc1 (configuration not stated),inconclusive: -40.9%
21,O=C(COc1ccc2ccccc2c1)N1CCN(Cc2c[nH]c3ccccc23)CC1,inactive: 40.7%
22,O=C(CN1C(=O)/C(=C/c2ccccc2F)SC1=S)NC1C=CS(=O)(=O)C1 (configuration not stated),inconclusive: -45.8%

# 7 of the compounds above, as tab-separated lines.
row	SMILES	activity change, negative = inhibition
1	COc1ccc(C2=NN(C(=O)CSc3cn(C)c4ccccc34)C(c3ccc(OC)cc3)C2)cc1 (configuration not stated)	inconclusive: -52.2%
2	CCSc1nnc(N2C(=O)c3ccc(C(=O)c4ccc(C(=O)O)cc4)cc3C2=O)s1	inconclusive: -40%
3	O=C(COc1ccccc1/C=C1\SC(=O)NC1=O)Nc1ccc(F)cc1	inconclusive: -48.2%
4	CCOCCCNC(=O)C(NC(=O)CNC(=O)c1ccccc1)c1ccc(OC)cc1 (configuration not stated)	inconclusive: -50.5%
5	COc1ccc(CCNC(=O)CCCn2c(=O)c3ccccc3n(CC(=O)Nc3cccc(C)c3)c2=O)cc1OC	inactive: -7.84%
6	CCCOc1ccc(C(=O)Nc2ccc(S(=O)(=O)NC3=NCCCCC3)cc2)cc1	active: -61.7%
7	CC(=O)c1cccc(NC(=O)c2ccc(S(=O)(=O)N3CCCCC3)cc2)c1	inconclusive: -54.7%

# (more compounds)

row,SMILES,"activity change, negative = inhibition"
1,O=C(Nc1ccc(N2CCOCC2)c(Cl)c1)c1ccc2c(c1)OCCO2,active: -61.4%
2,COc1ccc(/C=N/Nc2nc(-c3cccc(S(=O)(=O)N4CCCC4)c3)cs2)cc1OC,inconclusive: -41.6%
3,Cc1cccc(NC(=O)c2ccc([N+](=O)[O-])o2)n1,inconclusive: -44.5%
4,CN(C)C1CCCCC=CC(=O)NC1 (configuration not stated),inconclusive: -42.5%
5,COc1cc(CNc2nc3ccccc3n2Cc2ccccc2)ccc1O,inactive: -9.85%
6,COc1ccccc1C(O)(c1ccccc1)C(CN1CCOCC1)c1ccccc1 (configuration not stated),inconclusive: -52.9%
7,CCOc1ccc(C(CC(=O)O)n2cnnn2)cc1OC (configuration not stated),inactive: -29.4%
8,CCOC(=O)Cn1c(=O)c2c(nc3n2CCN3Cc2ccccc2)n(C)c1=O,inconclusive: -40.3%
9,Cc1ccc(-n2c(SCC(=O)Nc3ccc4c(c3)OCO4)nnc2-c2cccs2)cc1,inconclusive: -45.6%
10,COC(=O)[C@@]1(Cc2ccc(OC)cc2)[C@H]2c3cc(C(=O)N4CCCC4)n(Cc4ccc(C)o4)c3C[C@H]2CN1C(=O)c1ccccc1,inactive: -25.9%
11,O=C(CSCc1ccc(Br)cc1)N=Nc1c(O)[nH]c2ccccc12,inconclusive: -56.3%
12,CCSc1nsc(NC(=O)Nc2cccc(C(C)=O)c2)n1,active: -74.9%
13,Cn1nnnc1SCCNCc1cc(Cl)ccc1OCc1ccccc1,inconclusive: -46.7%
14,CN(C)c1nnnn1-c1ccc(Oc2ccccc2)cc1,inconclusive: -49.4%
15,CCOc1ccccc1N1CCN(C(=O)c2ccc(S(=O)(=O)Nc3ccccc3)cc2)CC1,inconclusive: -43.3%
16,Cc1ccccc1Cn1cnc2nc3c(cc2c1=O)CC(C)CC3 (configuration not stated),inactive: 23.9%
17,O=[N+]([O-])c1ccc(SCc2c(F)cccc2Cl)nc1,active: -60.8%
18,O=C(NC12CC3CC(CC(C3)C1)C2)c1cncc(Br)c1,inconclusive: -45.3%
19,O=C1OCC2=C1C(c1ccc3c(c1)OCO3)Sc1ccccc1N2 (configuration not stated),inconclusive: -55.2%
20,OCC[C@@H]1C[C@@H](O)[C@H](O)[C@]2(OCc3ccccc32)O1,inconclusive: -41.6%
21,C/C(=N\Nc1nc(Cl)c(Cl)cc1Cl)c1ccc(S(=O)(=O)NCc2ccco2)cc1,inconclusive: -41.5%
22,Cc1ccc(-n2c(SCC(=O)Nc3cc(S(=O)(=O)N4CCOCC4)ccc3Cl)nc3ccccc3c2=O)cc1,inconclusive: -51.4%

row,SMILES,"activity change, negative = inhibition"
1,CCOc1cc(C(=O)NCCOC)ccc1OC,inconclusive: -54.8%
2,Cc1ccccc1NC(=O)CSc1ccsc1[N+](=O)[O-],inconclusive: -54.6%
3,CCOC(=O)c1ccc(NC(=O)c2ccc(CN3C(=O)CCn4nc(C)cc43)cc2)cc1,inactive: -4.01%
4,O=C(CCN1C(=O)c2ccccc2C1=O)NC(=S)Nc1ccccc1,inconclusive: -45.3%
5,O=c1[nH]c(=S)n(Cc2ccc(F)cc2)c(O)c1/C=N/N1CCCCC1,inconclusive: -53.2%
6,COc1cccc(NC(=O)Nc2ccccc2SC)c1,inactive: -28.9%
7,COCCCNCCCCOc1ccc(OCc2ccccc2)cc1,inconclusive: -42.1%
8,CS(=O)(=O)N(CC(=O)NCC1CCCO1)c1ccc(Cl)c(Cl)c1 (configuration not stated),inactive: 48.5%
9,COc1cccc(NC(=O)Nc2ccc3nc(N4CCN(C)CC4)cc(C)c3c2)c1,active: -101%
10,Cc1noc(/C=C/c2ccccc2F)c1S(=O)(=O)N1CCC(C(=O)Nc2ccc(C#N)cc2)CC1,inactive: 11.6%
11,CC(C)[C@H](NC(N)=O)C(=O)Nc1cccc([N+](=O)[O-])c1,inactive: -11.1%
12,Cc1ccccc1OCC(=O)NCCC1=CCCCC1,inconclusive: -53%
13,CCS(=O)(=O)C1=NSC2=NC(=O)/C(=C\c3ccc(OC(=O)c4ccco4)cc3)C(=N)N21,inconclusive: -45.4%
14,O=C(Nc1ccc2c(c1)OCO2)c1ccc(CN2CCOCC2)cc1,inactive: 44.1%
15,Cc1cc2[nH]c(=O)c(=O)[nH]c2cc1S(=O)(=O)NC1CCC(C)CC1 (configuration not stated),inconclusive: -52.8%
16,CCOC(=O)C(=O)N1CCC(C(=O)OCC)CC1,inactive: 6.81%
17,CCCCc1c(C)nc2ccccc2c1SCCC(=O)O,inconclusive: -57.2%
18,CC(C)NC(=O)C1(C)CCN1CCC(=O)c1ccccc1 (configuration not stated),inactive: 5.16%
19,O=C(CCl)Nc1c2c(nn1-c1ccccc1)CSC2,inconclusive: -43.2%
20,Cc1ccc(C)c(NC(=S)N2CCC(NC(=O)c3ccco3)CC2)c1,inactive: -2.7%
21,COc1ccc(S(=O)(=O)N2CCCC2)cc1C(=O)O,inactive: -2.07%
